The data set has as its system PnMYB4 (Panax notoginseng). Briefly: EMSA. To be noted: EMSA Kit (Beyotime), 4% native acrylamide gel; 100x and 500x unlabeled competitor; pH and temperature not stated; recombinant protein; protein details: His-tag (pET28a); label: biotin 3' end.

For at least one entry, the source does not settle the construct or the ends of the probe. Negatives hold for the conditions tested. At least one verdict rests on a figure or table, not on a statement of the authors.

For “ACATAAATATAAAAAAATGTATGTGC / GCACATACATTTTTTTTATATTTATGT [PnSE-pro-probe-mutant 1]”, the binding result is “no binding”.

As to “ACATAAATATTGGTTGATGTATGTGC (double strand) [PnSE-pro-probe 1]”, the binding result was “binds”. “AGTAATATGAGGGGGGTAAATAAATA (double strand) [PnSE-pro-probe-mutant 2]”: the binding result was “no binding”.

Take “AGTAATATGATAACCATAAATAAATA (double strand) [PnSE-pro-probe 2]”: the binding result is on record as “binds”.

Regarding “ATTATTTTAACAACCAACTTATATTT (double strand) [PnSS-pro-probe 1]”, the binding result is “binds”. Turning to “ATTATTTTAATTTTTTACTTATATTT (double strand) [PnSS-pro-probe-mutant 1]”, the binding result was “no binding”.

In the case of “GTACACCACAGGGGGGACAAGTAGTA (double strand) [PnDS-pro-probe-mutant 2 (also printed as mutant-F1/R1)]”, the binding result is on record as “no binding”. Take “GTACACCACATAACCAACAAGTAGTA (double strand) [PnDS-pro-probe 2 (also printed as probe-F1/R1)]”: the binding result is on record as “binds”. As for “TAGAACTAGGCCCCCCAACTAGAAAT (double strand) [PnDS-pro-probe-mutant 1]”, the binding result was “no binding”. For “TAGAACTAGGTGGTTAAACTAGAAAT (double strand) [PnDS-pro-probe 1]” the value was “binds”; for “TTTCACATTCCAACTGCAAATTAAGC (double strand) [PnSS-pro-probe 2]”, “binds”. The same measure for “TTTCACATTCTTTTTTCAAATTAAGC (double strand) [PnSS-pro-probe-mutant 2]”: “no binding”.

Values taken from paper PMC10410195.
